The other results are listed elsewhere or left out. These are further read-outs of the screen, such as a control signal, another cell line or another target. No call is given for them. Most of these compounds were active or inconclusive in the main read-out, so they are no random draw. Words in brackets tell the shape of the fitted curve; partial curves, single points and poor fits give uncertain potencies.
Experiment: qHTS Assay for Lipid Storage Modulators in Drosophila S3 Cells;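 for cell number change: cells counted by Cell Tracker Red CMTPX staining in the red channel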
Settings: BODIPY lipid droplet fluorescence, 18-24 h; for cell number change: measured here: cell count max response, cells fed with added oleic acid
Summary of the method: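 Laser-scanning cytometry quantifies lipid droplet accumulation (500–530 nm total intensity; droplet/cell object ratio) in oleic acid-fed (400 uM added) Drosophila S3 cells treated with a concentration series. 20 uM Triacsin C defined 100% inhibition.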

[1] = measured here: lipid fluorescence (Fed channel) AC50, cells fed with added oleic acid
[2] = measured here: cell number channel AC50, cells fed with added oleic acid

Row | SMILES | cell number change [%] | AC50 [1] | AC50 [2]
1 | CN(C)c1ccc2c(=O)[nH][nH]c(=O)c2c1 | -1.49 | 0.00411 µM [rising, full curve, poor fit] | 
2 | CCCCN1C(=O)c2ccc(C(=O)NCCN3C(=O)S/C(=C\c4cccnc4)C3=O)cc2C1=O | 8.22 | 16.4 µM [falling, single point] | 
3 | O=C1CN(C(=O)COc2ccccc2Cl)c2ccccc2N1 | -3.48 |  | 
4 | CCOc1cc(/C=C/C(=O)N(CC)CC(=O)NCc2cccs2)cc(Cl)c1OC | 62.7 |  | 23.1 µM [rising, single point]
5 | O=c1cc(-c2ccccc2)oc2ccc(O)cc12 | -5.39 | 0.00461 µM [falling, full curve, poor fit] | 
6 | Cc1ccc(S(=O)(=O)N(CCC(=O)NCc2ccccc2F)c2ccccc2)cc1 | 1.69 | 29.1 µM [falling, partial curve, poor fit] | 
7 | COc1ccc(-n2nc(C(=O)NCC(=O)N3CCC(C(N)=O)CC3)c3ccccc3c2=O)cc1OC | 28.6 | 0.58 µM [falling, single point] | 
8 | Cc1ccc(C)c(N(C(=O)Cc2cccs2)C(C(=O)NC2CCCC2)c2ccc(C)o2)c1 (stereo not drawn) |  | 6.51 µM [falling, single point] | 
9 | Cc1c(=O)n(OCc2cccc(F)c2)c2ccccc2[n+]1[O-] | 103 |  | 1.03 µM [rising, full curve, poor fit]
10 | Cc1ccccc1-c1cc2nc(-c3ccc([N+](=O)[O-])cc3)cc(=O)n2[nH]1 | -8.23 |  | 
11 | CC[n+]1c(C)sc2c(C)cc(C)cc21 | 22.5 | 29.1 µM [rising, single point] | 
12 | Cc1ccc(CCC(=O)Nc2ccc(C)c(C)c2)o1 | -60.7 |  | 29.1 µM [falling, single point]
13 | CC1Oc2ccccc2N(CC(=O)N(Cc2ccccc2)Cc2ccccn2)C1=O (stereo not drawn) |  | 0.13 µM [falling, full curve, poor fit] | 
14 | O=C(O/N=C/c1cccc([N+](=O)[O-])c1)C1CC1 | -81.4 |  | 18.4 µM [falling, single point]
15 | CCN(CC)CCCNC(=O)CC1Oc2ccc(C)cc2NC1=O (stereo not drawn) | 4.15 |  | 
16 | Cc1cccc(C)c1NC(=O)Cn1nnc(C(=O)Nc2ccc(F)cc2F)c1N | 19.1 | 6.51 µM [rising, single point] | 
17 | COc1ccc(OC)c(-c2nc(CN3CCN(C(=O)c4ccco4)CC3)c(C)o2)c1 | 5.9 |  | 
18 | O=C(c1ccc2nccnc2c1)N1CCN(Cc2ccc3c(c2)OCO3)CC1 | 32.9 |  | 6.51 µM [rising, partial curve]
19 | COc1ccc(/C(C)=N/NS(=O)(=O)c2cc(C)ccc2C)c(OC)c1 | 54.5 |  | 2.91 µM [rising, full curve]
20 | CN(c1cccc(NS(=O)(=O)c2cccc([N+](=O)[O-])c2)c1)S(C)(=O)=O | -21.9 |  | 2.31 µM [falling, single point]
21 | Cc1ccccc1OCc1nc(-c2ccc(NC(=O)c3cccs3)cc2)no1 | -2.39 | 3.26 µM [rising, single point] | 

Row | SMILES | cell number change [%] | AC50 [1] | AC50 [2]
22 | O=C(NCc1ccccc1)NS(=O)(=O)c1ccccc1Cl | -12 | 0.103 µM [falling, full curve, poor fit] | 
23 | CC1C(=O)N2CCCc3cc(S(=O)(=O)N4CCC(C(N)=O)CC4)cc1c32 (stereo not drawn) | -0.763 |  | 6.51 µM [falling, single point]
24 | CN(C)c1ccc(/C=N/NC(=O)c2cnc3ccccc3c2)cc1 | 10.9 | 0.326 µM [rising, full curve] | 
25 | CCOc1ccccc1NC(=O)CN(c1ccc(Cl)cc1)S(C)(=O)=O | -15.4 | 29.1 µM [falling, single point] | 
26 | CCCc1cc(C(=O)N2CCN(c3ccc(C(F)(F)F)cn3)CC2)sc1C | 6.35 |  | 
27 | O=C(Nc1ccccc1F)C1CCCN(S(=O)(=O)c2cccc3cccnc23)C1 (stereo not drawn) | 10.6 | 0.82 µM [rising, partial curve] | 
28 | CCN(CC(=O)Nc1ccc(NC(C)=O)cc1)C(=O)C12CC3CC(CC(Cl)(C3)C1)C2 | -24.3 |  | 
29 | COc1cc(-c2cc(C(=O)N(C)Cc3ccccc3)c3ccccc3n2)cc(OC)c1OC | -10.3 | 1.16 µM [falling, full curve] | 
30 | c1ccc(-c2csc(NNC3=NCCCCC3)n2)cc1 | -74.7 | 14.6 µM [falling, partial curve] | 18.4 µM [falling, partial curve]
31 | CC1(C)C(=O)Nc2ccccc2N1C(=O)CN1C(=O)NC(CCc2ccccc2)C1=O (stereo not drawn) | -78.5 | 29.1 µM [falling, single point] | 29.1 µM [falling, single point]
32 | O=C(Cc1ccc(-n2c(=S)[nH]c3ccccc3c2=O)cc1)N1CCN(c2ccccc2)CC1 | 160 | 1.46 µM [rising, full curve, poor fit] | 25.9 µM [rising, partial curve]
33 | CC1Cc2ccccc2N1C(=O)COC(=O)CSc1ccc(F)cc1 (stereo not drawn) | -30 |  | 
34 | Cc1cc(C)nc(SCc2ccc3nonc3c2)n1 | -29 | 29.1 µM [falling, single point] | 
35 | C#CCOCCOCCOCCNc1nc(N2CCN(C(=O)CCCCCCCCCCNC(=O)Cn3cc(CCCCCN)nn3)CC2)nc(N2CCN(C(=O)CCCCCCCCCCNC(=O)Cn3cc(C[C@@H](C)O)nn3)CC2)n1 | 10.2 | 0.411 µM [falling, single point] | 
36 | CC(=O)N[C@@H](Cc1c[nH]c2ccccc12)C(=O)OCC(=O)Nc1ccc(S(=O)(=O)N(C)C)cc1 | 1.32 | 0.326 µM [falling, partial curve, poor fit] | 
37 | Cn1c(=O)c2c(nc(SCC(=O)N3CCOCC3)n2C)n(C)c1=O | 15.2 |  | 
38 | COc1cc2c(cc1OC)C(c1ccc(-c3ccc(Cl)cc3Cl)o1)=NCC2 | -45.8 | 23.1 µM [falling, single point] | 10.3 µM [falling, single point]
39 | C=C(C)Cn1c(SCC(=O)N/N=C/c2c(O)ccc3ccccc23)nc2ccccc2c1=O | 133 |  | 16.4 µM [rising, single point]
40 | COC(=O)C1=C(C)N(C)C(C)=C(C(=O)OC)C1c1ccc(Cl)cc1 | 41.4 | 6.51 µM [rising, partial curve] | 2.59 µM [rising, full curve]
41 | CCCCCCCNC(=O)CN1C(=O)CSc2ccc(S(=O)(=O)N3CCOCC3)cc21 |  | 0.116 µM [falling, single point] | 
42 | COc1cc(C(=O)NCCC(=O)N2CCN(C)CC2)cc(OC)c1OC | 33.6 |  | 

Row | SMILES | cell number change [%] | AC50 [1] | AC50 [2]
43 | Cc1ccc(C)c(NC(=O)CSc2nc3c(oc4ccccc43)c(=O)n2-c2ccccc2)c1 | 1.4 | 0.366 µM [rising, single point] | 
44 | Clc1ccc(OCCn2ccnc2)c(Br)c1 | 2.82 | 11.6 µM [rising, partial curve] | 
45 | Cc1nn(CC(=O)NC2CCCCC2)c(=O)c2cccn12 | 35.5 |  | 32.6 µM [rising, single point]
46 | O=S(=O)(c1cccc2cccnc12)N1CCN(Cc2ccc3c(c2)OCO3)CC1 | -4.31 | 6.51 µM [rising, single point] | 
47 | Cc1ccc(N2C(=O)c3ccccc3C2(O)c2ncc[nH]2)cc1 (stereo not drawn) | 3.84 |  | 
48 | COc1ccc([C@]23Cc4ccccc4C(O2)C2=C(CCCC2=O)O3)cc1 | 29.9 | 5.31 µM [rising, single point] | 
49 | COCC(=O)N(Cc1cc2cc(C)ccc2[nH]c1=O)c1cccc(C)c1C | 5.11 | 25.9 µM [rising, single point] | 
50 | CCCc1[nH]n(-c2nc3ccccc3s2)c(=O)c1C=NCCCOC | 25.8 | 1.3 µM [rising, full curve] | 1.64 µM [rising, full curve, poor fit]
51 | CN(C)c1ccc(/C=C(/C(=O)c2ccc(Cl)cc2Cl)n2cncn2)cc1 | -103 | 20.6 µM [falling, single point] | 18.4 µM [falling, partial curve]
52 | COc1ccc([N+](=O)[O-])cc1N(CC(=O)NC1CCCC1)S(C)(=O)=O | 6.44 |  | 
53 | COc1cc2c(cc1NC(=O)CCC(=O)O)oc1ccccc12 | 18.9 | 1.46 µM [rising, full curve, poor fit] | 
54 | Cc1ccc(Nc2nnc(SCC(=O)Nc3ccc(S(=O)(=O)N4CCOCC4)cc3)s2)cc1 | -15.8 |  | 
55 | COC(=O)c1ccc(OCCCCN(C)Cc2ccccc2)cc1 | -1.17 |  | 
56 | Cc1ccc(S(=O)(=O)C2(C(=O)N3CCCCCC3)CC2)cc1 | -14.8 | 25.9 µM [falling, partial curve, poor fit] | 
57 | O=C(CSCc1cnn(-c2ccccc2)c1-n1cccc1)NCc1cccs1 |  |  | 5.8 µM [rising, single point]
58 | COc1ccc(C(=O)OCC(=O)c2c(N)n(C)c(=O)n(C)c2=O)cc1OC | 53.5 |  | 0.82 µM [rising, full curve]
59 | Cc1cccc(NC(=S)NCCC(c2ccccc2)c2ccccc2)c1 | -37 | 4.11 µM [falling, full curve] | 3.66 µM [falling, full curve]
60 | COc1ccc(C2CC(=O)OC3=C2C(=O)CC(C)(C)C3)c(OC)c1 (stereo not drawn) | 25.9 |  | 0.0259 µM [rising, full curve, poor fit]
61 | CS(=O)(=O)c1ccc(C(=O)N2CCN(C(=O)c3ccco3)CC2)cc1 | -10.7 | 0.00517 µM [rising, full curve, poor fit] | 

Among those listed so far, 4 contain a nitro group on carbon:
Row | SMILES | cell number change [%] | AC50 [1] | AC50 [2]
10 | Cc1ccccc1-c1cc2nc(-c3ccc([N+](=O)[O-])cc3)cc(=O)n2[nH]1 | -8.23 |  | 
14 | O=C(O/N=C/c1cccc([N+](=O)[O-])c1)C1CC1 | -81.4 |  | 18.4 µM [falling, single point]
20 | CN(c1cccc(NS(=O)(=O)c2cccc([N+](=O)[O-])c2)c1)S(C)(=O)=O | -21.9 |  | 2.31 µM [falling, single point]
52 | COc1ccc([N+](=O)[O-])cc1N(CC(=O)NC1CCCC1)S(C)(=O)=O | 6.44 |  | 
